# According to PubChem BioAssay (NCATS):
# The chains behind the UniProt entries cited, without tags or fusion partners. Where a name states a change or a piece, a line headed by the entry shows the natural chain unless it says otherwise.
# UniProt O15648: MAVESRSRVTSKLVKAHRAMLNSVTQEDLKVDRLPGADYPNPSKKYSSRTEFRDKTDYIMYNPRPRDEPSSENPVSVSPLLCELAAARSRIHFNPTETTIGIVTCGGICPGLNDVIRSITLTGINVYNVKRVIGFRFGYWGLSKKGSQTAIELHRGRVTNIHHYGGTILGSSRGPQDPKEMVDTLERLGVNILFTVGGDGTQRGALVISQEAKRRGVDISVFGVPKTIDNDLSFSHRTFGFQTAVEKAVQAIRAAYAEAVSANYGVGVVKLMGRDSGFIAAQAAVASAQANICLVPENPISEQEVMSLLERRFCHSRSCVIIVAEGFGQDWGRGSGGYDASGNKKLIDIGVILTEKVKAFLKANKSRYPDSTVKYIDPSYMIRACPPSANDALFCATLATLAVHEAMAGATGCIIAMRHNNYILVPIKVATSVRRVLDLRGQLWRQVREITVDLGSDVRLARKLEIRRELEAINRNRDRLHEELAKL
# UniProt O89049, whole entry, looked up: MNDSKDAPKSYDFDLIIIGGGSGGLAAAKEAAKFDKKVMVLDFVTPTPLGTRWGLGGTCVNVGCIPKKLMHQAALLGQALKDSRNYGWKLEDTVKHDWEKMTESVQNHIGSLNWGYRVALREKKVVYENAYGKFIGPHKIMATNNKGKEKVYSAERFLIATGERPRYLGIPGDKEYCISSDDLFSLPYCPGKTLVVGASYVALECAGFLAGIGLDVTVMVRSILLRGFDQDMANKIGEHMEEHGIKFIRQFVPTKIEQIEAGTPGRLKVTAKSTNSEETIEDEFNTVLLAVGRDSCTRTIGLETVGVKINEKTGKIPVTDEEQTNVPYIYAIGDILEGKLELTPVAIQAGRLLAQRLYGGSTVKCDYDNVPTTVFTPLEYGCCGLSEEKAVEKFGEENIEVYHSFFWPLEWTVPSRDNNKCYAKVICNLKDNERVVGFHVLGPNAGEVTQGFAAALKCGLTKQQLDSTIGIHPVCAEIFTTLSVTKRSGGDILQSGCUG
# UniProt P21728, whole entry, looked up: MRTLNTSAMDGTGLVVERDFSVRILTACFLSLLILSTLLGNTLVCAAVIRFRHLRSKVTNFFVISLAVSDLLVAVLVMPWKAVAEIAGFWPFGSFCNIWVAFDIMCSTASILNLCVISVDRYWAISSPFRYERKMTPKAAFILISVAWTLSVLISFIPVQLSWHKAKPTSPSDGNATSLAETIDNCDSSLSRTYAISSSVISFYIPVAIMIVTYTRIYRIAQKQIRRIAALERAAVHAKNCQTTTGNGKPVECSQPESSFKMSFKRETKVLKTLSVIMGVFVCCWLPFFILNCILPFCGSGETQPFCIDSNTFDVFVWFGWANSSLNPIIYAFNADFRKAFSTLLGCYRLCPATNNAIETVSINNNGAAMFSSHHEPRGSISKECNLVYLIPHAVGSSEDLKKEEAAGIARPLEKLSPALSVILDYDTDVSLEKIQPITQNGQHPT
# UniProt Q13526, whole entry, looked up: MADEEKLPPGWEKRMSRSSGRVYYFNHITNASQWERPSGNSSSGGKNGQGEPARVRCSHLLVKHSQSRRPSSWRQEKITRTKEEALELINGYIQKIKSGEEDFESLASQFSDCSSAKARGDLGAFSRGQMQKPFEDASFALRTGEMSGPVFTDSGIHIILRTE
# UniProt P15289: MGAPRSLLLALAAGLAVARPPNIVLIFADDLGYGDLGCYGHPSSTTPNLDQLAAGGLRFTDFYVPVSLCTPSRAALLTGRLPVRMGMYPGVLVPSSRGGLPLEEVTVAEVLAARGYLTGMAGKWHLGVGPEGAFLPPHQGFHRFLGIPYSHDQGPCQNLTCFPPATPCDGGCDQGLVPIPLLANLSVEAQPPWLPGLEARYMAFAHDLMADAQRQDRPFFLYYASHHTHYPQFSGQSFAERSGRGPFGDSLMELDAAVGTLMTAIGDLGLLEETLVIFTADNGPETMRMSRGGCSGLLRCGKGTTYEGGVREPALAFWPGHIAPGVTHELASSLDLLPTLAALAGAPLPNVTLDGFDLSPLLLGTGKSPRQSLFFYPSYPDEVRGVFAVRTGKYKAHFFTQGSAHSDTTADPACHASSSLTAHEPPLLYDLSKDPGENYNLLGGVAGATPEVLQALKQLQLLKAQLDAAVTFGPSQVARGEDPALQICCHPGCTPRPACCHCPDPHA
# UniProt P35557, whole entry, looked up: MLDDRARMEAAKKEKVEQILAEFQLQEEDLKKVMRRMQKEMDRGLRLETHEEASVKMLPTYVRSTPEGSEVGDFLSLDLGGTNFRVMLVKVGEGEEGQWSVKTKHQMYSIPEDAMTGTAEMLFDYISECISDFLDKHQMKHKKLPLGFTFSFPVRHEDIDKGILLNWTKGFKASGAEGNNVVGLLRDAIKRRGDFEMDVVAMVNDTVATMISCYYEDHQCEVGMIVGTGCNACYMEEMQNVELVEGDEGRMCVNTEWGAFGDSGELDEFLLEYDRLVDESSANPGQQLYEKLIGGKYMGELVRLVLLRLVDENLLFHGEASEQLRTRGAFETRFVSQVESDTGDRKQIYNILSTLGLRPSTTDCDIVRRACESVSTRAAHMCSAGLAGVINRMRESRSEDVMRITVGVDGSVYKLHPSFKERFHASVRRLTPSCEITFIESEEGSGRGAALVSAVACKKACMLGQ
# UniProt Q14397: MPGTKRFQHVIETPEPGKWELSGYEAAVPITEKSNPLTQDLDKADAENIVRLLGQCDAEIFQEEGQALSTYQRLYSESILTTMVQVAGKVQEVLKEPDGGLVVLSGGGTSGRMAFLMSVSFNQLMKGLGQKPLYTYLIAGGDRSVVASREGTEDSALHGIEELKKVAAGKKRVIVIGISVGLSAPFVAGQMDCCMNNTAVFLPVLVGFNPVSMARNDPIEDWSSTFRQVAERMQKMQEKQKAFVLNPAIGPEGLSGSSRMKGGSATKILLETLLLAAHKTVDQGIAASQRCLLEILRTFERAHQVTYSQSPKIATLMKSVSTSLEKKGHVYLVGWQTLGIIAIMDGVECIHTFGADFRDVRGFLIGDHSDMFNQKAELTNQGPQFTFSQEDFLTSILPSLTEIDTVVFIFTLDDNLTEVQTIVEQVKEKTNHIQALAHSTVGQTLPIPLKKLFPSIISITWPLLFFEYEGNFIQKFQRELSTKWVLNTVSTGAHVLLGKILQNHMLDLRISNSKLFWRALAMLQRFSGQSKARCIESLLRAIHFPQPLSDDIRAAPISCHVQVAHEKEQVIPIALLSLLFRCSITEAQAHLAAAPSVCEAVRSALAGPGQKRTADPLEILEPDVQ
# UniProt Q9BV86: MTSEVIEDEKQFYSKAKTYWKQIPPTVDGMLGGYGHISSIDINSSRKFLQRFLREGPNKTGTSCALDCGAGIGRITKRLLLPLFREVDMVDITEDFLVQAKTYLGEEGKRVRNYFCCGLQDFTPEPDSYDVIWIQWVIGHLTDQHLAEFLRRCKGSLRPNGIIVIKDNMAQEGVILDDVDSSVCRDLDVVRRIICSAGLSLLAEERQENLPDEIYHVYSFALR
# UniProt C7C422: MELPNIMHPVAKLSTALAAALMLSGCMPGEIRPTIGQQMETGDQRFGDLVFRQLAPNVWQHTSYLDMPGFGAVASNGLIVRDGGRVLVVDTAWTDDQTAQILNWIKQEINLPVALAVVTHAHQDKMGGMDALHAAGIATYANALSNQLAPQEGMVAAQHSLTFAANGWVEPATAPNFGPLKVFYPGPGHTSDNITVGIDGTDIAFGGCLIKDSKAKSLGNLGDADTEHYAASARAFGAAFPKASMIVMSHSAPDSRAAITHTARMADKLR
# Inconclusive means that the source gave no clear call. Such entries were picked first, then a sample of the others. For some of these results: Potencies beside an inconclusive call are fits to weak or partial responses and may not hold up. Calls of active or inactive are those of the source. Unless noted, calls follow the shape of the dose curve; as a rule, active = well fitted curve in the direction sought with a large enough effect; inconclusive = small, poorly fitted or top-dose-only effect, or another doubt; inactive = no such curve, though single readings can be large; an effect the other way counts as inactive or inconclusive.
# Key:
# [1] = molecular target: ATP-dependent 6-phosphofructokinase (Trypanosoma brucei brucei) (UniProt O15648); assay: qHTS Validation Assay to Find Inhibitors of T. brucei phosphofructokinase (AID 485368); conditions: activity change, negative = inhibition: at 57.5 µM (top of the series); also: potency is read from the fitted curve at half-maximal effect
# Procedure, shortened: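 qHTS format, up to 57 uM. PFK 1.25 nM; F6P 0.5 mM; ATP 0.1 mM; 5 mM MgCl2, 0.01% Tween20, 0.1% BSA; 0.1 M TEA pH 8.0; 45 min RT; ADP-Glo readout; no-enzyme control = full inhibition.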
# [2] = molecular target: Thioredoxin reductase 1, cytoplasmic (Rattus norvegicus) (UniProt O89049); assay: qHTS Assay for Inhibitors of Mammalian Selenoprotein Thioredoxin Reductase 1 (TrxR1) (AID 488773); conditions: Potency: inhibition;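 also: drop in NADPH fluorescence over an 8 min run after selenite addition; nearly all actives have a fitted effect of over 40% in size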
# Procedure, shortened: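 Inhibition is scored from the loss of NADPH fluorescence between first and last reads of an 8-min kinetic run. Selenite (400 uM) was the substrate, added after 15 min compound preincubation at room temperature.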
# [3] = molecular target: D(1A) dopamine receptor (Homo sapiens) (UniProt P21728); assay: HTS Assay for Allosteric Agonists of the Human D1 Dopamine Receptor: Primary Screen for Agonists (AID 488981); also: potency is read from the fitted curve at half-maximal effect
# Procedure, shortened: (§1)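 Tetracycline-induced HEK293 T-REx cells force-coupled to calcium signalling were incubated overnight at 30 C and dye-loaded at room temperature. Calcium flux over 180 s after compound addition flagged agonists; a further 180 s read after EC20 dopamine flagged potentiators.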
# [4] = molecular target: D(1A) dopamine receptor (Homo sapiens) (UniProt P21728); assay: HTS Assay for Allosteric Agonists of the Human D1 Dopamine Receptor: Primary Screen for Potentiators (AID 488982); also: potency is read from the fitted curve at half-maximal effect
# Procedure, shortened: as §1
# [5] = molecular target: D(1A) dopamine receptor (Homo sapiens) (UniProt P21728); assay: HTS Assay for Allosteric Agonists of the Human D1 Dopamine Receptor: Primary Screen for Antagonists (AID 488983); conditions: D1 receptor cell assay, antagonist mode, qHTS titration; activity change, negative = inhibition: at 41.8 µM (top of the series);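 also: calcium flux response to an EC80 dopamine challenge measured with no-wash dye; potency is read from the fitted curve at half-maximal effect; nearly all actives have a fitted effect of over 65% in size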
# Procedure, shortened: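 In this primary screen, compounds are applied to calcium-dye-loaded HEK293 T-REx cells with force-coupled D1 expression induced overnight at 30 C. An EC80 of dopamine follows the 180 s compound phase, and calcium is monitored for a further 180 s.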
# [6] = Validation screen for small molecules that induce genotoxicity in human embryonic kidney (HEK293T) cells expressing luciferase-tagged ELG1 (AID 493106); also: potency is read from the fitted curve at half-maximal effect
# Procedure, shortened: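 In this validation screen, increased ELG1-luciferase signal flags compounds causing genetic stress. HEK293T reporter cells are treated 16 hr (37 °C, 5% CO2), developed with ONE-Glo for 30 min at room temperature, and imaged on a CCD-based reader.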
# [7] = molecular target: Peptidyl-prolyl cis-trans isomerase NIMA-interacting 1 (Homo sapiens) (UniProt Q13526); assay: qHTS Validation Assay to Find Inhibitors of Pin1 (AID 504536; active = well fitted inhibition curve with a large enough effect in the polarisation, with a control signal flat, not every such curve was filed as active; inconclusive = small, poorly fitted or top-dose-only effect, or effect the other way; the % refers to the polarisation; also: potency is read from the fitted curve at half-maximal effect)
# Procedure, shortened: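 Fluorescence polarization competition: compounds (titration) displace HiFluor-488-labeled Pin1-1b peptide from Pin1 (0.3 uM final) in pH 7.5 HEPES buffer with DTT, 10 min at room temperature; %Activity normalized to no-enzyme wells, curves fitted.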
# [8] = molecular target: Phosphoglycerate kinase, glycosomal (Trypanosoma brucei brucei) (UniProt P07378); assay: qHTS Validation Assay to Find Inhibitors of Phosphoglycerate Kinase (AID 504547); also: potency is read from the fitted curve at half-maximal effect
# Procedure, shortened: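 In TEA buffer (100mM, pH 7.6) containing 5mM MgCl2 and 0.01% Tween-20, the GAPDH-coupled PGK reaction proceeded for 60 minutes at room temperature before a single luminescence reading using Kinase-Glo Plus.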
# [9] = HTS Assay for Allosteric Antagonists of the Human D2 Dopamine Receptor: Hit Validation in HTRF (AID 624455); conditions: Cells stably expressing D1 dopamine receptor, inhibition mode
# Procedure, shortened: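 Validation of hits used D1 receptor stably expressed in cells with HTRF detection of response inhibition; origin screen measured calcium flux following EC80 dopamine in a force-coupled, inducible Hek293 Trex D2 cell line.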
# [10] = molecular target: Arylsulfatase A (Homo sapiens) (UniProt P15289); assay: qHTS screen for enhancers of Arylsulfatase A (ASA1): LOPAC Validation Assay (AID 720538); conditions: activity change, positive = activation: at 57.5 µM (top of the series)
# Procedure, shortened: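 Cell-based enhancement test: residual ASA activity in SV40-transformed I179S patient fibroblasts is measured by pNCS turnover (0.5mM final, 14h, room temperature) following 48h compound incubation; higher fluorescence indicates activation.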
# [11] = molecular target: Hexokinase-4 (Homo sapiens) + Glucokinase regulatory protein (Homo sapiens) (UniProt P35557+Q14397); assay: qHTS assay for inhibitors of recombinant human GCK-GKRP interaction: HTRF assay (AID 743207); conditions: recombinant GCK-GKRP HTRF binding, 60 min; Potency: with sorbitol-6-phosphate unless noted; activity change, negative = inhibition: at 57.5 µM (top of the series), with sorbitol-6-phosphate unless noted; also: potency is read from the fitted curve at half-maximal effect
# Procedure, shortened: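 Titration screening format: recombinant GST-GCK and FLAG-GKRP at 5 nM, S6P at 2 uM, labelled anti-tag antibodies, 60 min at RT, dual-wavelength HTRF readout.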
# [12] = molecular target: N-terminal Xaa-Pro-Lys N-methyltransferase 1 (Homo sapiens) (UniProt Q9BV86); assay: qHTS Assay for Inhibitors of N-terminal methyltransferase 1 (NTMT1): LOPAC validation of the NTMT1 SAHH-coupled ThioGlo3 Assay (AID 1347143);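 also: SAH from peptide methylation measured as thiol fluorescence via SAHH coupling and ThioGlo3; potency is read from the fitted curve at half-maximal effect; nearly all actives have a fitted effect of over 70% in size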
# Procedure, shortened: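 In this qHTS pilot against the LOPAC set, 125nM NTMT1 met compounds tested at multiple concentrations, and fluorescence was normalized to background.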
# [13] = molecular target: Metallo-beta-lactamase type 2 (Klebsiella pneumoniae) (UniProt C7C422); assay: qHTS to identify inhibitors of the New Delhi Metallo-beta-lactamase (NDM): assay validation screen against the NCATS LOPAC Collection (AID 1794843); also: potency is read from the fitted curve at half-maximal effect
# Procedure, shortened: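 Enzyme 2 nM final, 50 mM HEPES pH 7.0, 1 uM ZnSO4, 0.01% Tween20; cpds in DMSO, preincub w/ enzyme; + nitrocefin (50 uM stock); A485 at plateau; no-enzyme column as blank.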
structure (smiles),measurement,setting,value
CSc1nc(N)c2ncn([C@@H]3O[C@H](COP(=O)(O)OP(=O)(O)O)C(O)[C@H]3O)c2n1 (stereo partly drawn),Potency,[1],"inconclusive: 15.1 µM [falling, partial curve, poor fit]"
same,Potency,[2],inactive
same,Potency,[3],"inconclusive: 7.94 µM [activator, partial curve, poor fit]"
same,Potency,[4],active: 0.0517 µM
same,Potency,[5],"inconclusive: 0.224 µM [inhibitor, full curve]"
same,Potency,[6],"inconclusive: 20.6 µM [activator, partial curve]"
same,Potency,[7],"inconclusive: 19 µM [falling, partial curve, poor fit]"
same,Potency,[8],"inconclusive: 37.9 µM [inhibitor, partial curve, poor fit]"
same,Potency,[9],"inconclusive: 6.51 µM [inhibitor, single point]"
same,Potency,[10],inactive
same,Potency,[11],"inconclusive: 3.55 µM [inhibitor, single point]"
same,Potency,[12],"inconclusive: 56.2 µM [inhibitor, partial curve, poor fit]"
same,Potency,[13],"inconclusive: 6.31 µM [inhibitor, full curve]"

# Pulled one by one from the list above:
structure (smiles),measurement,setting,value
CSc1nc(N)c2ncn([C@@H]3O[C@H](COP(=O)(O)OP(=O)(O)O)C(O)[C@H]3O)c2n1 (stereo partly drawn),Potency,[11],"inconclusive: 3.55 µM [inhibitor, single point]"
same,Potency,[9],"inconclusive: 6.51 µM [inhibitor, single point]"
